Results reported in article PMC8119947.
These are yes or no findings as the source states them, for the method shown. In cells and extracts the contact can be indirect. Some entries that bind do so weakly or less than the wild type.

Protein sequences, listed by entry. Tags and fused reporters are not part of them. Residues count along the entry.
UniProt P41597: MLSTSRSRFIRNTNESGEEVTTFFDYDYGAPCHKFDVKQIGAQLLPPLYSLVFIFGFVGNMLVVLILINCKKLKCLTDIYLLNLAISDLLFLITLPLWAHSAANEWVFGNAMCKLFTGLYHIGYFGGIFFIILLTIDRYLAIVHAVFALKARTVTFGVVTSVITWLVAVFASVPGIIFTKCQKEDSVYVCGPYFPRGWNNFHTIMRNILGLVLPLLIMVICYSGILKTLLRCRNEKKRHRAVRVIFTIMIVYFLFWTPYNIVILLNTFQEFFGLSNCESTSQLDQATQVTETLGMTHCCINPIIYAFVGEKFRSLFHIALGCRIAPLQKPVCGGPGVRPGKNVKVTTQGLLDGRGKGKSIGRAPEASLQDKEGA
UniProt P80098, residues 24-99: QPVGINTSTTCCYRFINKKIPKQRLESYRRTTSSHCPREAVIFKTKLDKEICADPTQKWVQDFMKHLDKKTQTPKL
UniProt P40763: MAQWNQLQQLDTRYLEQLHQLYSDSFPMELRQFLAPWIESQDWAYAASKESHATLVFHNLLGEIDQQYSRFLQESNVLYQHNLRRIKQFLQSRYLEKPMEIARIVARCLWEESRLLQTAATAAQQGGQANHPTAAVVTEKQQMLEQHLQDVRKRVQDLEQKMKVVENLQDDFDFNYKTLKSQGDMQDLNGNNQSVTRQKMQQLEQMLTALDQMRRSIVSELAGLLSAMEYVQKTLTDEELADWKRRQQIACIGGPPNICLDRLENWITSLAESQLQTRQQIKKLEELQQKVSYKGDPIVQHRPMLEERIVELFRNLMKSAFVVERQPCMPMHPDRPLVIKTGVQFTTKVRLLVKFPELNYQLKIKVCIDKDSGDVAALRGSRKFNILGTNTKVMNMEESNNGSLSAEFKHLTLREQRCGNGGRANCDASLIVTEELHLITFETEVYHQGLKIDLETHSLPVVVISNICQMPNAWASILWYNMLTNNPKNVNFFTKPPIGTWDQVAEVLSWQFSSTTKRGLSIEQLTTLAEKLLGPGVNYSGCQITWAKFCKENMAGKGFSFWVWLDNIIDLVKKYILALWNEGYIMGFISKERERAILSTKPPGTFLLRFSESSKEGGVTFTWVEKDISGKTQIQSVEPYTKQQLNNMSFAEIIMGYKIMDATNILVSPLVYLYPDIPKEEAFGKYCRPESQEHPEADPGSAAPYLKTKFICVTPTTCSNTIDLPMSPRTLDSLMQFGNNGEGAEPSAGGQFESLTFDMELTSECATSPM

Tests used:
[1] = molecular target: CCR2 (human (endogenous in HT29)) (UniProt P41597); assay: co-IP; lysate of dormant HT29 cells, pre-cleared 2 h at 4 °C with IgG and protein A + G agarose; CCR2 and CCL7 antibodies added at 4 °C overnight; blotted with CCR2 and CCL7 antibodies; source of the CCL7 (recombinant, added to the cells, or other) not told
[2] = molecular target: CCR2 (human (endogenous in HT29)) (UniProt P41597); assay: co-IP; lysate of dormant HT29 cells, pre-cleared 2 h at 4 °C with IgG and protein A + G agarose; CCR2 and CCL7 antibodies added at 4 °C overnight; blotted; cells with or without treatment with recombinant protein CCL7

| binding [1] | binding [2] | Substance |
| --- | --- | --- |
| binds |  | chemokine (C-C motif) ligand 7 (CCL7) (from UniProt P80098 24-99) |
|  | binds | STAT3 (from UniProt P40763 1-770) |
